In paper PMC12011305:
These are yes or no findings as the source states them, for the method shown. Binding seen in cells or lysates may run through a third protein. Some results given as binding are weak or reduced against the parent protein; the word gives no strength. For part of these data: Tags and fused reporters may be left off the sequences shown. Values belong to the molecule of their own block, whether it stands above or below them.

The chains behind the UniProt entries cited, without tags or fusion partners.
UniProt P19525: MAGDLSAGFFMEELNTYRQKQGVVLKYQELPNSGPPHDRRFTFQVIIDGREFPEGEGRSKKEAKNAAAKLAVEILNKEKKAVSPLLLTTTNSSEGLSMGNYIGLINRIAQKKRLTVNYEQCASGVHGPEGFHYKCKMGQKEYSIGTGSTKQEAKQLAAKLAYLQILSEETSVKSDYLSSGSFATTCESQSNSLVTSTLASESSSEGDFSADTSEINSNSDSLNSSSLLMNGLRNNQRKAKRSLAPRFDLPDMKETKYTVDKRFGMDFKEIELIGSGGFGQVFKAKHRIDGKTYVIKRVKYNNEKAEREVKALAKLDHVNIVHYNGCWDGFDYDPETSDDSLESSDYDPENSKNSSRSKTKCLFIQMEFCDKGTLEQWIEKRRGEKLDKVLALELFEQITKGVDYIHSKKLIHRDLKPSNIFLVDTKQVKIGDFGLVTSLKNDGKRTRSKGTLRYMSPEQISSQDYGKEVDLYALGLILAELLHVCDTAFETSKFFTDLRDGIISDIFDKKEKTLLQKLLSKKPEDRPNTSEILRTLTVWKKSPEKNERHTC

How the values were obtained:
[1] = target: T1, GFP-tagged ADAR1 p150 (plasmid pmGFP-ADAR1-p150) (UniProt P55265); assay: co-IP; anti-GFP antibody on RIPA lysates of ADAR1 KO cells transfected with ADAR1p110GFP or ADAR1p150GFP plasmids and infected with HSV-1 (MOI 3, 7 h.p.i.); Dynabeads G; Western blot for PKR
T1 sequence: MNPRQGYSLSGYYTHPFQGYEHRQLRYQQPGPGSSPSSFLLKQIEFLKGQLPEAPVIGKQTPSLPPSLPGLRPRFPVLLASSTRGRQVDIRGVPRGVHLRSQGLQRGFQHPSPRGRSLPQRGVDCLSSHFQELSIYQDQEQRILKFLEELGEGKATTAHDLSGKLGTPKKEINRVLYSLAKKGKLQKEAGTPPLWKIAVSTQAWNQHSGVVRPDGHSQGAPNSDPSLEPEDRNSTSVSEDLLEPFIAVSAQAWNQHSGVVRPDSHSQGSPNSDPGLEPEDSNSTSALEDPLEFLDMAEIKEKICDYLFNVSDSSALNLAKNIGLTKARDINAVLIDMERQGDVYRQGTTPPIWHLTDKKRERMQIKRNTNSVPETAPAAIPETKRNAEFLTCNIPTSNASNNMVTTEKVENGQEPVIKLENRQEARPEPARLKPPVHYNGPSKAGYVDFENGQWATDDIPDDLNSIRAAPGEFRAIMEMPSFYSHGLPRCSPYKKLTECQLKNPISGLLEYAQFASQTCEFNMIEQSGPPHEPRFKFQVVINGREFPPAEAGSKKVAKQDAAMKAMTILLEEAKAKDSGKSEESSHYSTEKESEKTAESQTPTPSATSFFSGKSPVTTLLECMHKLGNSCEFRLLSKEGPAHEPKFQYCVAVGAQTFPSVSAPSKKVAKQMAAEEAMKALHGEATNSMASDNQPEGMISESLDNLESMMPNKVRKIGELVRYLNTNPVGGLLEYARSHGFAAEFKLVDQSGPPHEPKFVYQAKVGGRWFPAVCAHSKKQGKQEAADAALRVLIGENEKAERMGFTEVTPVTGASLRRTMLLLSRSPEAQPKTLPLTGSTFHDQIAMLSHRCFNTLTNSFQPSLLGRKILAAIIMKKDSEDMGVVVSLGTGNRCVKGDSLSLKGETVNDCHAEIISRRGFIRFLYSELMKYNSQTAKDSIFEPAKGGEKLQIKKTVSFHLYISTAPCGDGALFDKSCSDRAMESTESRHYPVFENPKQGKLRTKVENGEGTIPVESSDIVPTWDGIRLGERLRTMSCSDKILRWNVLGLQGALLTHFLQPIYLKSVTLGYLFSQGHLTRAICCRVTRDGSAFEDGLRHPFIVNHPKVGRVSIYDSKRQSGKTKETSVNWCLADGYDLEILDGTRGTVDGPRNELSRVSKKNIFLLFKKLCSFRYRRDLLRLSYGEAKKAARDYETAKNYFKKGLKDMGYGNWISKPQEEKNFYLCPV

[2] = target: protein kinase R (PKR) (human (endogenous in HEK293)) (UniProt P19525); assay: co-IP; anti-PKR antibody on RIPA lysates of HEK293 WT cells infected with HSV-1 (MOI 3, 7 h.p.i.), lysates treated with RNase A (20 ug/mL) and RNase III (2 U/mL); Dynabeads G; Western blot
[3] = target: protein kinase R (PKR) (human (endogenous in HEK293)) (UniProt P19525); assay: co-IP; anti-PKR antibody (1:50) on RIPA lysates of HEK293 ADAR1 WT cells, mock infected, treated with 10 ng/mL IFN-beta or infected with HSV-1 (MOI 3, 7 h.p.i.); Dynabeads G, overnight at 4 C, five washes with RIPA buffer; Western blot

binding [1]: binds
Molecule: protein kinase R (PKR) (from UniProt P19525 1-551)

binding [2]: binds weakly
binding [3]: binds
B1: ADAR1 p150 (interferon-inducible 150 kDa isoform of adenosine deaminase acting on dsRNA 1) (protein, UniProt P55265-1 1-1226)
chain: T1 sequence
